Laboratory results: publication PMC11527346
No constants are given. Whether binding was seen depends on the method and setting. Binding seen in cells or lysates may run through a third protein. A yes stands for co-enrichment or nearness to the bait. Other partners may have been found.

By UniProt entry, the sequences of proteins in these tests, tags left out.
UniProt Q04207: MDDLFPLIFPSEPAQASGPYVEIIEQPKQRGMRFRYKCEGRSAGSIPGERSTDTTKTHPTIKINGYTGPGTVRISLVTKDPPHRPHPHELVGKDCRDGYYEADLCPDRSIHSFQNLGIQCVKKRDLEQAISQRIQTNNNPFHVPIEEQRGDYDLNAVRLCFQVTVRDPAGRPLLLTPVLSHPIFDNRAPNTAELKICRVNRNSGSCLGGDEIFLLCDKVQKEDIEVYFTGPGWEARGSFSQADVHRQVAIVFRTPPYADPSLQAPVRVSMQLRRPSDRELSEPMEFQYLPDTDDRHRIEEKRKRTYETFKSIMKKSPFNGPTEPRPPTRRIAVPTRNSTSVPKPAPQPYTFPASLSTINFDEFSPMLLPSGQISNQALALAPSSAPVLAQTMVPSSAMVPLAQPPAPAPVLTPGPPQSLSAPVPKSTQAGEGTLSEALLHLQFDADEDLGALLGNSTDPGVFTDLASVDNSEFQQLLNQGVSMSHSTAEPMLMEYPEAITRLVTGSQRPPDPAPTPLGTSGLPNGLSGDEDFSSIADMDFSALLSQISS
UniProt Q13191: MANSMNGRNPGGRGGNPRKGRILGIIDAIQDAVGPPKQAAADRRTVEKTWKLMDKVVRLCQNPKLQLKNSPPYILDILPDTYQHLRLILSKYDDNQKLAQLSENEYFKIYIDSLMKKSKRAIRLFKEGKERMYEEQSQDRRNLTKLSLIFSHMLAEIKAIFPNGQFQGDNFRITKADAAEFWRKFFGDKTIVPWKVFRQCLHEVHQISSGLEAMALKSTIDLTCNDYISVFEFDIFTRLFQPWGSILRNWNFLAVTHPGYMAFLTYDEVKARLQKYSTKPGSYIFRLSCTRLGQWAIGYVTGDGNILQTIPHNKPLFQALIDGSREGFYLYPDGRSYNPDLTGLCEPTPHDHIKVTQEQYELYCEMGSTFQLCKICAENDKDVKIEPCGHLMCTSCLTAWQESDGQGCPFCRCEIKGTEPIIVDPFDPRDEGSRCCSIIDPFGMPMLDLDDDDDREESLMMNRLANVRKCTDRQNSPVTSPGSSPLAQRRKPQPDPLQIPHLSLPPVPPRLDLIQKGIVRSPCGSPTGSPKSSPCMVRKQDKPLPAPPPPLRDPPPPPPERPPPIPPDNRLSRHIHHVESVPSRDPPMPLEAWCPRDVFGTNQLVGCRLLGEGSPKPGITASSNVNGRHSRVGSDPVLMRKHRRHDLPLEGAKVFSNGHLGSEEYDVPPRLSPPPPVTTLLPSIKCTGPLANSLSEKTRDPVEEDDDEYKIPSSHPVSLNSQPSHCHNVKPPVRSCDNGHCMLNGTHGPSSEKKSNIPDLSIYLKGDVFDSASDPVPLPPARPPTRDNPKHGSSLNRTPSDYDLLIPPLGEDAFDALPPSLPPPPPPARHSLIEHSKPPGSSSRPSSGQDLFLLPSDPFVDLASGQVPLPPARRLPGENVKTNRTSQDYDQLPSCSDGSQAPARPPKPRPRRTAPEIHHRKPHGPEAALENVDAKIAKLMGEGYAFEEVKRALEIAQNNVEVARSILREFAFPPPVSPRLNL
UniProt P14136: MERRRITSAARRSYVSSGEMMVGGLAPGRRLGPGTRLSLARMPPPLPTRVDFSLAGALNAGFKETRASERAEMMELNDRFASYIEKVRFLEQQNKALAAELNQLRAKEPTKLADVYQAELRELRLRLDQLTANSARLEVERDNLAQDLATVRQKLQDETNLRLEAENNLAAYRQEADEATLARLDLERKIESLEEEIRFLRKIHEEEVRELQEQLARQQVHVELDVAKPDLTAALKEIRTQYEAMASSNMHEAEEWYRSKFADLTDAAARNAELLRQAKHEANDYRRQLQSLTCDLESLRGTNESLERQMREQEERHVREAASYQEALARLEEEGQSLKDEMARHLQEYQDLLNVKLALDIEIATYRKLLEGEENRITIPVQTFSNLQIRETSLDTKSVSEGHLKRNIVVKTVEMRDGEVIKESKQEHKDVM
UniProt P15531: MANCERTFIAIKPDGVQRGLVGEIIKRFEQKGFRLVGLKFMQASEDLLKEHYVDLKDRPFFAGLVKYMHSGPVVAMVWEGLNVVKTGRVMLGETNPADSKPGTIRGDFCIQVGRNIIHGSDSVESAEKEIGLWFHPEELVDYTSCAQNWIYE

B1: DENND2A (protein, UniProt Q9ULE3 1-1009)
chain: MDMFSLDMIISDPAAEASRAGKKQLRGVQNPCPSARARPRHKSLNIKDKISEWEGKKEVPTPAPSRRADGQEDYLPSSTVERRSSDGVRTQVTEAKNGMRPGTESTEKERNKGAVNVGGQDPEPGQDLSQPEREVDPSWGRGREPRLGKLRFQNDPLSVLKQVKKLEQALKDGSAGLDPQLPGTCYSPHCPPDKAEAGSTLPENLGGGSGSEVSQRVHPSDLEGREPTPELVEDRKGSCRRPWDRSLENVYRGSEGSPTKPFINPLPKPRRTFKHAGEGDKDGKPGIGFRKEKRNLPPLPSLPPPPLPSSPPPSSVNRRLWTGRQKSSADHRKSYEFEDLLQSSSESSRVDWYAQTKLGLTRTLSEENVYEDILDPPMKENPYEDIELHGRCLGKKCVLNFPASPTSSIPDTLTKQSLSKPAFFRQNSERRNFKLLDTRKLSRDGTGSPSKISPPSTPSSPDDIFFNLGDPQNGRKKRKIPKLVLRINAIYEVRRGKKRVKRLSQSMESNSGKVTDENSESDSDTEEKLKAHSQRLVNVKSRLKQAPRYPSLARELIEYQERQLFEYFVVVSLHKKQAGAAYVPELTQQFPLKLERSFKFMREAEDQLKAIPQFCFPDAKDWVPVQQFTSETFSFVLTGEDGSRRFGYCRRLLPGGKGKRLPEVYCIVSRLGCFSLFSRILDEVEKRRGISPALVQPLMRSVMEAPFPALGKTILVKNFLPGSGTEVIELCRPLDSRLEHVDFESLFSSLSVRHLVCVFASLLLERRVIFIADKLSILSKCCHAMVALIYPFAWQHTYIPVLPPAMVDIVCSPTPFLIGLLSSSLPLLRELPLEEVLVVDLVNSRFLRQMDDEDSILPRKLQVALEHILEQRNELACEQDEGPLDGRHGPESSPLNEVVSEAFVRFFVEIVGHYSLFLTSGEREERTLQREAFRKAVSSKSLRHFLEVFMETQMFRGFIQERELRRQDAKGLFEVRAQEYLETLPSGEHSGVNKFLKGLGNKMKFLHKK
B2: UPF3A (protein, UniProt Q9H1J1 1-476)
chain: MRSEKEGAGGLRAAVAARGPSGREKLSALEVQFHRDSQQQEAETPPTSSSGCGGGAGKPREEKRTALSKVVIRRLPPGLTKEQLEEQLRPLPAHDYFEFFAADLSLYPHLYSRAYINFRNPDDILLFRDRFDGYIFLDSKGLEYPAVVEFAPFQKIAKKKLRKKDAKTGSIEDDPEYKKFLETYCVEEEKTSANPETLLGEMEAKTRELIARRTTPLLEYIKNRKLEKQRIREEKREERRRRELEKKRLREEEKRRRREEERCKKKETDKQKKIAEKEVRIKLLKKPEKGEEPTTEKPKERGEEIDTGGGKQESCAPGAVVKARPMEGSLEEPQETSHSGSDKEHRDVERSQEQESEAQRYHVDDGRRHRAHHEPERLSRRSEDEQRWGKGPGQDRGKKGSQDSGAPGEAMERLGRAQRCDDSPAPRKERLANKDRPALQLYDPGARFRARECGGNRRICKAEGSGTGPEKREEAE
B3: TONSL (protein, UniProt Q96HA7 1-1378)
chain: MSLERELRQLSKAKAKAQRAGQRREEAALCHQLGELLAGHGRYAEALEQHWQELQLRERADDPLGCAVAHRKIGERLAEMEDYPAALQHQHQYLELAHSLRNHTELQRAWATIGRTHLDIYDHCQSRDALLQAQAAFEKSLAIVDEELEGTLAQGELNEMRTRLYLNLGLTFESLQQTALCNDYFRKSIFLAEQNHLYEDLFRARYNLGTIHWRAGQHSQAMRCLEGARECAHTMRKRFMESECCVVIAQVLQDLGDFLAAKRALKKAYRLGSQKPVQRAAICQNLQHVLAVVRLQQQLEEAEGRDPQGAMVICEQLGDLFSKAGDFPRAAEAYQKQLRFAELLDRPGAERAIIHVSLATTLGDMKDHHGAVRHYEEELRLRSGNVLEEAKTWLNIALSREEAGDAYELLAPCFQKALSCAQQAQRPQLQRQVLQHLHTVQLRLQPQEAPETETRLRELSVAEDEDEEEEAEEAAATAESEALEAGEVELSEGEDDTDGLTPQLEEDEELQGHLGRRKGSKWNRRNDMGETLLHRACIEGQLRRVQDLVRQGHPLNPRDYCGWTPLHEACNYGHLEIVRFLLDHGAAVDDPGGQGCEGITPLHDALNCGHFEVAELLLERGASVTLRTRKGLSPLETLQQWVKLYRRDLDLETRQKARAMEMLLQAAASGQDPHSSQAFHTPSSLLFDPETSPPLSPCPEPPSNSTRLPEASQAHVRVSPGQAAPAMARPRRSRHGPASSSSSSEGEDSAGPARPSQKRPRCSATAQRVAAWTPGPASNREAATASTSRAAYQAAIRGVGSAQSRLGPGPPRGHSKALAPQAALIPEEECLAGDWLELDMPLTRSRRPRPRGTGDNRRPSSTSGSDSEESRPRARAKQVRLTCMQSCSAPVNAGPSSLASEPPGSPSTPRVSEPSGDSSAAGQPLGPAPPPPIRVRVQVQDHLFLIPVPHSSDTHSVAWLAEQAAQRYYQTCGLLPRLTLRKEGALLAPQDLIPDVLQSNDEVLAEVTSWDLPPLTDRYRRACQSLGQGEHQQVLQAVELQGLGLSFSACSLALDQAQLTPLLRALKLHTALRELRLAGNRLGDKCVAELVAALGTMPSLALLDLSSNHLGPEGLRQLAMGLPGQATLQSLEELDLSMNPLGDGCGQSLASLLHACPLLSTLRLQACGFGPSFFLSHQTALGSAFQDAEHLKTLSLSYNALGAPALARTLQSLPAGTLLHLELSSVAAGKGDSDLMEPVFRYLAKEGCALAHLTLSANHLGDKAVRDLCRCLSLCPSLISLDLSANPEISCASLEELLSTLQKRPQGLSFLGLSGCAVQGPLGLGLWDKIAAQLRELQLCSRRLCAEDRDALRQLQPSRPGPGECTLDHGSKLFFRRL

biological target: His-tagged full-length RelA (UniProt Q04207); experiment: affinity purification with mass spectrometry; biotinylated IFNb-κB DNA on streptavidin agarose beads with 100 ng recombinant full-length RelA and Mono Q fraction Q23 of unstimulated HeLa nuclear extract; control without RelA; 25 mM Tris-HCl pH 7.5, 150 mM NaCl, 5% glycerol, 1 mM DTT; overnight at 4°C; LC-MS; only the target purified

Row | binding | Molecule
1 | binds | CBLB (from UniProt Q13191 1-982)
2 | binds | GFAP (from UniProt P14136 1-432)
3 | binds | NME1 (nucleoside diphosphate kinase 1) (from UniProt P15531 1-152)
4 | binds | B1
5 | binds | B2
6 | binds | B3
